Measurements as given in ChEMBL document CHEMBL4425091, “Bafilomycins and Odoriferous Sesquiterpenoids from Streptomyces albolongus Isolated from Elephas maximus Feces” (J Nat Prod, 2016).
Converted amounts (≈) assume the structure as drawn.

How the values were obtained:
Staphylococcus aureus = assay: Antibacterial activity against Staphylococcus aureus ATCC 25923 after 24 hrs by MTT based microbroth dilution assay; assay type: functional; conditions: ATCC 25923, 24 h
How it was run: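 Two-fold broth microdilution MIC in LB medium (pH 7.0). Compounds dissolved in DMSO, serially diluted to eight levels (11.0−0.086 mg/mL), then each diluted 10-fold in medium (1.1−0.0086 mg/mL). 10 μL of this added to 100 μL of bacteria at 1 × 10^6 cfu/mL. Incubated 24 h at 28 °C. MTT added for 4 h, wells emptied, DMSO added, absorbance read at 570 nm.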

Escherichia coli = assay: microbe, parasite or virus in culture; conditions: ATCC 25922, 24 h

O=C(O)c1cn(C2CC2)c2cc(N3CCNCC3)c(F)cc2c1=O [CIPROFLOXACIN]
MIC (Staphylococcus aureus): 0.13 µg/mL (≈ 0.392 µM) | MIC (Escherichia coli): 0.13 µg/mL (≈ 0.392 µM)
